Laboratory results taken from patent publication US10888533B2 (ICURE PHARMACEUTICAL INC., priority 2014, dated 2021).

Settings: human, po

## COc1cc2c(cc1OC)C(=O)C(CC1CCN(Cc3ccccc3)CC1)C2 (racemic) [donepezil, (±)-2,3-dihydro-5,6-dimethoxy-2-[[1-(phenylmethyl)-4-piperidinyl]methyl]-1H-inden-1-one]
  required skin permeation rate: approximately 4.134 μg/cm^2/hr
